Results published in the supplement of paper PMC12889115.
The other results are listed elsewhere or left out. Values are raw readings; no control value is given beside them.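 Primary screen: polymyxin B was added at a level permeabilizing Salmonella outer membranes while sparing inner membranes. DMSO wells, both with and without polymyxin B, established maximum growth. Plate-to-plate variation meant each plate was ranked on its own, and the lowest-OD600 compounds were selected as hits.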

Test system: Salmonella enterica serovar Typhimurium SL1344
Assay: bacterial growth OD600 after 18 h with compound and polymyxin B; higher = more bacterial growth (less inhibition)
Settings: 50 µM, Mueller-Hinton broth

| Compound | bacterial growth OD600 (polymyxin B 1 µg/mL) | bacterial growth OD600 (polymyxin B 0.75 µg/mL) |
| --- | --- | --- |
| COCC1CCN(C(=O)c2cc(Cn3c(C)nc4ccccc43)[nH]n2)C1 (stereo unspecified) | 0.917 | – |
| COc1cc(CC2(CCC(=O)NC(C)c3cccc4ccccc34)CCC(=O)N2)ccc1F (stereo unspecified) | – | 0.796 |
| COC(=O)[C@@H]1C[C@H](C(=O)NCc2cccc(OC)c2)[C@H](c2ccccc2F)N1C | 0.98 | – |
| O=C(Nc1ccc(-c2cccc(F)c2)cc1)C1CCCN(CC2CC2)C1 (stereo unspecified) | – | 0.008 |
| COc1cccc(-n2cc(CN(C)Cc3nc(-c4cccs4)no3)cn2)c1 | 0.851 | – |
| COCCNC(=O)c1ccc(OC)cc1OC1CCN(Cc2cccc(OC)c2)CC1 | 1.25 | – |
| COC(=O)c1ccc(CN2CCC(n3nccc3NC(=O)CC(C)C)CC2)cc1 | 1 | – |
| CCN1C(=O)CC(CC(=O)N2CCN(Cc3ccccn3)CC2)(c2cccc(C(F)(F)F)c2)C1=O (stereo unspecified) | – | 0.831 |
| CSCC(=O)N1CCCC(C(=O)c2ccc(-c3ccccc3)cc2)C1 (stereo unspecified) | 0.011 | – |
| COc1cc(NC(=O)CCC2CCCN(Cc3ccc(F)c(OC)c3)C2)cc(OC)c1 (stereo unspecified) | 1.13 | – |
| Cc1nn(C)c(C)c1CN(C)C(=O)c1coc(COc2ccc(F)cc2)n1 | 1.03 | – |
| CN1CCN([C@@H]2CCN(Cc3ccc(Cn4cccn4)cc3)C[C@H]2O)CC1 | – | 0.865 |
| CC(C)N(Cc1nccn1C)c1nc2nonc2nc1NCc1ccccc1 | – | 0.334 |
| COCC(C)N1CCC(Oc2ccc(C(=O)NC3CCCC3)cc2Cl)CC1 (stereo unspecified) | 1.12 | – |
| Cc1ccccc1N1CCN(C2CCCN(C(=O)CCC(F)(F)F)C2)CC1 (stereo unspecified) | 0.937 | – |
| C=CCS(=O)(=O)N1CCCC(CCc2ccc(F)cc2F)C1 (stereo unspecified) | – | 0.082 |

| Compound | bacterial growth OD600 (polymyxin B 1 µg/mL) | bacterial growth OD600 (polymyxin B 0.75 µg/mL) |
| --- | --- | --- |
| CCOC(=O)C1(Cc2ccccc2F)CCCN(C(=O)c2c(C)nc3sccn23)C1 (stereo unspecified) | 0.001 | – |
| CCC1C(=O)NCCN1C(=O)c1ccc(OC2CCN(C(=O)C3CC3)CC2)cc1 (stereo unspecified) | 0.901 | – |
| O=C(c1ccccc1F)N1CCC(C2(Cc3ccc(F)cc3)NC(=O)N(C3CCOC3)C2=O)CC1 (stereo unspecified) | – | 0.885 |
| CC(CNCc1cc(NS(C)(=O)=O)cc(C(=O)Nc2ccccc2)c1)c1ccccc1 (stereo unspecified) | – | 0.962 |
| O=C(/C=C/c1ccc(F)c(F)c1)NCC1CCC2(CCN(Cc3ccccc3F)CC2)O1 (stereo unspecified) | – | 0.819 |
| CCN(C(=O)C1CCOCC1)C(Cc1ccccc1)C1CCN(Cc2c(F)ccc(F)c2F)CC1 (stereo unspecified) | – | 0.928 |
| O=C(c1ccoc1)N1CCCC(N2CCN(Cc3ccc4c(c3)OCO4)CC2)C1 (stereo unspecified) | 0.96 | – |
| CCOC(=O)C1(CC2CCCCO2)CCN(C(=O)Nc2ccc(SC)cc2)CC1 (stereo unspecified) | 0.787 | – |
| COc1ccccc1C1CN(CCNC(=O)c2ccc(C(C)=O)cc2)Cc2ccccc2O1 (stereo unspecified) | – | 0.631 |
| COc1ccc(CCN2C(=O)O[C@@H]3CN(C(=O)NCc4ccccc4)C[C@@H]32)cc1 | 0.886 | – |
| COCCN(Cc1nc(-c2cc(F)ccc2F)oc1C)C(C)C | 0.956 | – |
| Cc1cccc(C)c1OCc1cc(C(=O)N2CCCC(C(=O)c3nccn3C)C2)no1 (stereo unspecified) | 0.922 | – |
| Cc1cccc(OCC(=O)N2CCC(C3CCN(CC(C)C)CC3)C2)c1 (stereo unspecified) | – | 0.966 |
| O=C(c1cc(COc2c(F)cccc2F)on1)N1CCN(C2CCCCC2)CC1 | 0.869 | – |
| CCN(CC1CCCO1)C(=O)CC1(c2cccc(C(F)(F)F)c2)CC(=O)N(CC)C1=O (stereo unspecified) | – | 0.735 |

2 entries from above, field by field.
O=C(/C=C/c1ccc(F)c(F)c1)NCC1CCC2(CCN(Cc3ccccc3F)CC2)O1 (stereo unspecified)
  bacterial growth OD600 (polymyxin B 0.75 µg/mL): 0.819
CCN(C(=O)C1CCOCC1)C(Cc1ccccc1)C1CCN(Cc2c(F)ccc(F)c2F)CC1 (stereo unspecified)
  bacterial growth OD600 (polymyxin B 0.75 µg/mL): 0.928
